The test system of the data set is HeLa cells. Description: Subcellular localization and mobility of mutated TFEB-3xFlag in HeLa cells. Format: cell-based, human. As to conditions: normal versus starved media, compared to WT TFEB. How it is done: Cells were transiently transfected with DNA plasmids pRK5-mycPAT1, pCEP4-TFEB-his, pC1G2-TFEB, and p3 x FLAG-CMVTFEB using lipofectamine2000 or LTX (Invitrogen) according to the protocol from manufacturer. Site-direct mutagenesis was performed according to the manufacturer instructions (Stratagene) verifying the correct mutagenesis by sequencing.
Cells were seeded at 50% of confluence in 6 well dishes and serum starved overnight (ON). Normal medium was added the following day either in presence of DMSO or kinase inhibitors. Subcellular fractionation was carried out as previously reported. Briefly, cells were lysed in 0.5 Triton X-100 lysis buffer (50 mM Tris-HCl, 0.5% triton, 137.5 mM NaCl, 10% glycerol, 5 mM EDTA supplemented with fresh protease and phosphatase inhibitors. Supernatant represented cytosolic fraction while nuclear pellet was washed twice and lysed in 0.5 Triton X-100 buffer 0.5% SDS and sonicated.

Numbering of substitutions follows the chain as printed. In names and notes the source's numbering stands.

Here are results for two molecules from patent US9193755B1, “TFEB variants and uses thereof” (Fondazione Telethon, priority 2011, dated 2015).

B1: TFEB(S142A): TFEB variant with serine 142 mutated to alanine (protein, UniProt P19484 1-476, looked up, variant S142A)
Transcription factor EB: MASRIGLRMQLMREQAQQEEQRERMQQQAVMHYMQQQQQQQQQQLGGPPTPAINTPVHFQSPPPVPGEVLKVQSYLENPTSYHLQQSQHQKVREYLSETYGNKFAAHISPAQGSPKPPPAASPGVRAGHVLSSSAGNSAPNAPMAMLHIGSNPERELDDVIDNIMRLDDVLGYINPEMQMPNTLPLSSSHLNVYSSDPQVTASLVGVTSSSCPADLTQKRELTDAESRALAKERQKKDNHNLIERRRRFNINDRIKELGMLIPKANDLDVRWNKGTILKASVDYIRRMQKDLQKSRELENHSRRLEMTNKQLWLRIQELEMQARVHGLPTTSPSGMNMAELAQQVVKQELPSEEGPGEALMLGAEVPDPEPLPALPPQAPLPLPTQPPSPFHHLDFSHSLSFGGREDEGPPGYPEPLAPGHGSPFPSLSKKDLDLMLLDDSLLPLASDPLLSTMSPEASKASSRRSSFSMEEGDVL
modifications: 3xFlag tag
notes: TFEB variant with serine 142 mutated to alanine
As for B1, the “molecular weight migration / shift of TFEB mutant” value was “migrates at lower molecular weight in normal but not in starved media”.

B2: TFEB S142D: phospho-mimetic mutant of TFEB (protein, UniProt P19484 1-476, looked up, variant S142D)
Transcription factor EB: B1 Transcription factor EB with A142D
modifications: 3xFlag tag
As to B2, the “molecular weight migration / shift of TFEB mutant” value is on record as “reduced shift during starvation”.
